Measured values as given in patent US11220671B2, “Methods for the maturation of cardiomyocytes on amniotic fluid cell-derived ECM, cellular constructs, and uses for cardiotoxicity and proarrhythmic screening of drug compounds” (STEMBIOSYS, INC., priority 2019, dated 2022).

Assay: Composition of amniotic fluid cell-derived ECM by mass spectrometry (total spectra count)
[1] = protein component found by mass spectrometry in amniotic fluid cell-derived ECM Matrix A (Example 1)
[2] = protein component found by mass spectrometry in amniotic fluid cell-derived ECM Matrix B (Example 1)
[3] = protein component found by mass spectrometry in amniotic fluid cell-derived ECM Matrix C (Example 1)
[4] = protein component found by mass spectrometry in amniotic fluid cell-derived ECM Matrix D (Example 1)
[5] = amniotic fluid cell-derived ECM Matrix A, mass spectrometry, label = protein component
[6] = amniotic fluid cell-derived ECM Matrix B, mass spectrometry, label = protein component
[7] = amniotic fluid cell-derived ECM Matrix C, mass spectrometry, label = protein component
[8] = amniotic fluid cell-derived ECM Matrix D, mass spectrometry, label = protein component

| Substance | Total Spectra Count Matrix A [1] | Total Spectra Count Matrix B [2] | Total Spectra Count Matrix C [3] | Total Spectra Count Matrix D [4] | Total Spectra Count Matrix A [5] | Total Spectra Count Matrix B [6] | Total Spectra Count Matrix C [7] | Total Spectra Count Matrix D [8] |
| --- | --- | --- | --- | --- | --- | --- | --- | --- |
| 14-3-3 protein epsilon | 15 | 26 | 3 | 16 | – | – | – | – |
| 14-3-3 protein zeta/delta | 16 | 35 | 4 | 19 | – | – | – | – |
| ATP-dependent 6-phosphofructokinase, platelet type | 20 | 9 | 0 | 18 | – | – | – | – |
| ATP-dependent RNA helicase A | 14 | 25 | 1 | 9 | – | – | – | – |
| Alpha-enolase | 30 | 61 | 3 | 26 | – | – | – | – |
| Basement membrane-specific heparan sulfate proteoglycan core protein | 202 | 0 | 402 | 338 | – | – | – | – |
| Cofilin-1 | 14 | 0 | 4 | 11 | – | – | – | – |
| DNA-dependent protein kinase catalytic subunit | 33 | 10 | 0 | 5 | – | – | – | – |
| Endoplasmin | 29 | 71 | 3 | 22 | – | – | – | – |
| Eukaryotic initiation factor 4A-I | 15 | 28 | 2 | 8 | – | – | – | – |
| FACT complex subunit SPT16 | – | – | – | – | 0 | 7 | 0 | 0 |
| Fibronectin | 802 | 13851 | 1138 | 781 | – | – | – | – |
| Fibrous sheath-interacting protein 2 | – | – | – | – | 0 | 0 | 2 | 1 |
| Filaggrin | – | – | – | – | 0 | 3 | 0 | 0 |
| Filaggrin-2 | – | – | – | – | 0 | 2 | 0 | 0 |
| Galectin-3 | – | – | – | – | 0 | 39 | 0 | 0 |
| Galectin-8 | – | – | – | – | 0 | 5 | 2 | 0 |
| Glycylpeptide N-tetradecanoyltransferase 2 | – | – | – | – | 0 | 2 | 0 | 0 |
| Heat shock-related 70 kDa protein 2 | – | – | – | – | 0 | 0 | 0 | 24 |
| Hemicentin-2 | – | – | – | – | 0 | 0 | 0 | 0 |
| Heterogeneous nuclear ribonucleoprotein K | 26 | 28 | 3 | 26 | – | – | – | – |
| Homeobox protein Hox-B3 | – | – | – | – | 0 | 5 | 0 | 0 |
| Integrin beta-1 | 19 | 16 | 4 | 18 | – | – | – | – |
| Isocitrate dehydrogenase [NADP] cytoplasmic | – | – | – | – | 0 | 7 | 0 | 0 |
| Laminin subunit beta-1 | 28 | 30 | 4 | 11 | – | – | – | – |
| Laminin subunit gamma-1 | 18 | 48 | 0 | 6 | – | – | – | – |

| Substance | Total Spectra Count Matrix A [1] | Total Spectra Count Matrix B [2] | Total Spectra Count Matrix C [3] | Total Spectra Count Matrix D [4] | Total Spectra Count Matrix A [5] | Total Spectra Count Matrix B [6] | Total Spectra Count Matrix C [7] | Total Spectra Count Matrix D [8] |
| --- | --- | --- | --- | --- | --- | --- | --- | --- |
| Latent-transforming growth factor beta-binding protein 2 | – | – | – | – | 0 | 23 | 0 | 0 |
| Lipoamide acyltransferase component of branched-chain alpha-keto acid dehydrogenase complex, mitochondrial | – | – | – | – | 0 | 6 | 4 | 8 |
| Low-density lipoprotein receptor-related protein 1B | – | – | – | – | 0 | 2 | 0 | 0 |
| Low-density lipoprotein receptor-related protein 2 | – | – | – | – | 0 | 0 | 0 | 2 |
| Microtubule-associated protein 1B | 21 | 104 | 0 | 22 | – | – | – | – |
| Mucin-16 | – | – | – | – | 0 | 0 | 2 | 4 |
| Myosin-9 | 564 | 3923 | 295 | 340 | – | – | – | – |
| Nestin | – | – | – | – | 0 | 18 | 0 | 0 |
| Neurabin-2 | – | – | – | – | 0 | 3 | 0 | 0 |
| Neurobeachin | – | – | – | – | 0 | 0 | 0 | 3 |
| Neuroblast differentiation-associated protein AHNAK | 250 | 803 | 17 | 184 | – | – | – | – |
| Nuclear receptor-binding protein | – | – | – | – | 0 | 5 | 0 | 0 |
| PDZ and LIM domain protein 4 | – | – | – | – | 0 | 3 | 0 | 0 |
| Pentraxin-related protein PTX3 | – | – | – | – | 0 | 23 | 0 | 0 |
| Peptidyl-prolyl cis-trans isomerase B | – | – | – | – | 0 | 52 | 0 | 0 |
| Peptidyl-prolyl cis-trans isomerase FKBP10 | – | – | – | – | 0 | 3 | 0 | 0 |
| Pinin | – | – | – | – | 0 | 6 | 2 | 4 |
| Platelet-activating factor acetylhydrolase IB subunit alpha | – | – | – | – | 0 | 4 | 0 | 0 |
| Probable maltase-glucoamylase 2 | – | – | – | – | 0 | 0 | 0 | 2 |
| Protein disulfide-isomerase | 23 | 0 | 6 | 19 | – | – | – | – |
| SWISS-PROT: P02070 (Bos taurus) Hemoglobin subunit beta | 14 | 0 | 0 | 0 | – | – | – | – |
| SWISS-PROT: P12763 (Bos taurus) Alpha-2-HS-glycoprotein precursor | 30 | 42 | 18 | 19 | – | – | – | – |
| Stress-70 protein, mitochondrial | 17 | 33 | 0 | 10 | – | – | – | – |
| T-complex protein 1 subunit epsilon | 17 | 110 | 18 | 22 | – | – | – | – |
| T-complex protein 1 subunit eta | 20 | 72 | 15 | 22 | – | – | – | – |
| T-complex protein 1 subunit gamma | 23 | 72 | 17 | 26 | – | – | – | – |
